Measurements from US20020009752A1 (DUKE UNIVERSITY, published 2002).
These are yes or no findings as the source states them, for the method shown. Some entries that bind do so weakly or less than the wild type. For some of these results: Where a sequence is shown, tags or fusion partners need not be part of it. No end group written: not given here.

Amino acid sequences for entries named in this document (tags omitted). A change or cut given only in a name is not applied to a line headed by its entry.
UniProt Q156A1: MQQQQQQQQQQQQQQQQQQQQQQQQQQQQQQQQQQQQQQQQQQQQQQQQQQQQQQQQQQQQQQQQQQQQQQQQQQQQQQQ
UniProt Q54DK4: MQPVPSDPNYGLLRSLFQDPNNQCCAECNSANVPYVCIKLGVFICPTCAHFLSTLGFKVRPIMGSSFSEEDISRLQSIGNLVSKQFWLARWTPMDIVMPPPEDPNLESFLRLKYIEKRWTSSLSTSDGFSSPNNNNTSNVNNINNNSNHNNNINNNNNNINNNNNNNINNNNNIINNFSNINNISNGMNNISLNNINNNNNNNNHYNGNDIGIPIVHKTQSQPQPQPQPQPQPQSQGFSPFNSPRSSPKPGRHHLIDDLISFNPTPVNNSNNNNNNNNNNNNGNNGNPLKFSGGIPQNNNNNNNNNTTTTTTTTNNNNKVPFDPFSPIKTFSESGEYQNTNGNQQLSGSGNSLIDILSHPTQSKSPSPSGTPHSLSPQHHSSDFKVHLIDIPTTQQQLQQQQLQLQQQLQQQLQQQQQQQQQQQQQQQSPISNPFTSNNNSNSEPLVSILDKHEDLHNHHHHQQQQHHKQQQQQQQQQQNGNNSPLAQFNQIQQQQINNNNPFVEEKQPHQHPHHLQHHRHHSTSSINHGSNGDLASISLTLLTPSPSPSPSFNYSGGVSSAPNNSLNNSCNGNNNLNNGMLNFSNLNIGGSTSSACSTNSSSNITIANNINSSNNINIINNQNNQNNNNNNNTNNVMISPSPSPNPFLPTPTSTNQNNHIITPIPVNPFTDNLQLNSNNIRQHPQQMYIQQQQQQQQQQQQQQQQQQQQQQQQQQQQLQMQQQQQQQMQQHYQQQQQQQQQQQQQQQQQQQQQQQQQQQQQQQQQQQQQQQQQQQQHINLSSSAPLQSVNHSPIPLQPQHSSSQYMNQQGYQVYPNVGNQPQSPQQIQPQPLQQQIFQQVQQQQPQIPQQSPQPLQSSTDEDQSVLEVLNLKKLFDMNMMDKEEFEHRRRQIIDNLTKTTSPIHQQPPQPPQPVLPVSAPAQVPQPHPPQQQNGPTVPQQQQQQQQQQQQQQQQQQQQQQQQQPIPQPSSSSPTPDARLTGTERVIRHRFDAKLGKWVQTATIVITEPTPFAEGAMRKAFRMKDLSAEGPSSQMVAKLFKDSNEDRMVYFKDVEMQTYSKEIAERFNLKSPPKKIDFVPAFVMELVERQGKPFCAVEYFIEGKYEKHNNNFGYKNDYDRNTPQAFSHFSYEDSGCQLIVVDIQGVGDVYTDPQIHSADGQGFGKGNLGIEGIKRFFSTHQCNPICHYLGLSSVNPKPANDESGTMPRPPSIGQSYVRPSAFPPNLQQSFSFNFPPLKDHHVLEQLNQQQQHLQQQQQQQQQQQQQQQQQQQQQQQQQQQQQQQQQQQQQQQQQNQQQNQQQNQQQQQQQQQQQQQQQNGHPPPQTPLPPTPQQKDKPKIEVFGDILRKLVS

B1: QBP6 phage clone (Glutamine Binding Peptide 6 displayed on M13 phage) (peptide)
chain: WHNYFHWWQDT-pIII
notes: Assayed as purified M13 phage displaying the 11-mer at the amino terminus of pIII; not shown: pIII (Piii) capsid protein of phage M13; the 11-mer is added to its amino terminus; assayed as whole phage
B2: QBP1 phage clone (Glutamine Binding Peptide 1 displayed on M13 phage) (peptide)
chain: SNWKWWPGIFD-pIII
notes: as for B1
B3: QBP4 phage clone (Glutamine Binding Peptide 4 displayed on M13 phage) (peptide)
chain: WGLEHFAGNKR-pIII
notes: as for B1
B4: QBP3 phage clone (Glutamine Binding Peptide 3 displayed on M13 phage) (peptide)
chain: HEWHWWHQEAA-pIII
notes: as for B1
B5: glutamine binding peptide 1-CFP fusion protein (peptide, not shown: large carriers)
chain: SNWKWWPGIFD
B6: QBP2 phage clone (Glutamine Binding Peptide 2 displayed on M13 phage) (peptide)
chain: HWWRSWYSDSV-pIII
notes: as for B1
B7: QBP5 phage clone (Glutamine Binding Peptide 5 displayed on M13 phage) (peptide)
chain: WWRWNWATPVD-pIII
notes: as for B1

How the values were obtained:
[1] = biological target: polyglutamine-glutathione-S-transferase fusion protein with 62 glutamines (UniProt Q156A1); assay: phage ELISA on immobilized polyglutamine-GST
[2] = biological target: polyglutamine-YFP fusion protein with 81 glutamines (UniProt Q54DK4); assay: co-localisation by fluorescence microscopy in co-transfected COS-7 cells

Row | Binder | binding [1] | binding [2]
1 | B1 | binds | –
2 | B2 | binds | –
3 | B3 | binds | –
4 | B4 | binds | –
5 | B5 | – | binds
6 | B6 | binds | –
7 | B7 | binds | –
